From the supplement of paper PMC10849652
This is one part of the list. Residues, ends and D or L forms follow the SMILES beside them. *: point of attachment. Cbz = O=C(OCc1ccccc1)*

Chains of the proteins cited; added tags and fusions are not shown. Lines headed by an entry give the natural chain unless they say otherwise; changes in a name come on top.
UniProt O75475: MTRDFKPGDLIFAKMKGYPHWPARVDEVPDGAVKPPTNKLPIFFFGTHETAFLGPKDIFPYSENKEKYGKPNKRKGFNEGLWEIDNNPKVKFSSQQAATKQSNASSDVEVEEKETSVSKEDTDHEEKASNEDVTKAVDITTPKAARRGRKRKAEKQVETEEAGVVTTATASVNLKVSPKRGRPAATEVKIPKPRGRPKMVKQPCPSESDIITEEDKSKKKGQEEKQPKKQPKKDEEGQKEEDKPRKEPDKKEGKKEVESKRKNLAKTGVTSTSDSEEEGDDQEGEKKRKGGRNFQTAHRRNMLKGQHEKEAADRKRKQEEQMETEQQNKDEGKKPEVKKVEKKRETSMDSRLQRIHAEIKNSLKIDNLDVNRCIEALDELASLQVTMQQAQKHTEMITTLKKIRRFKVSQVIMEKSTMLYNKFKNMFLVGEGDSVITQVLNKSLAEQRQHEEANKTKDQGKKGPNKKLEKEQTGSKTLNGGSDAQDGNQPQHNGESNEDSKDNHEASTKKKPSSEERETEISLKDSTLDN
UniProt P62333, whole entry, looked up: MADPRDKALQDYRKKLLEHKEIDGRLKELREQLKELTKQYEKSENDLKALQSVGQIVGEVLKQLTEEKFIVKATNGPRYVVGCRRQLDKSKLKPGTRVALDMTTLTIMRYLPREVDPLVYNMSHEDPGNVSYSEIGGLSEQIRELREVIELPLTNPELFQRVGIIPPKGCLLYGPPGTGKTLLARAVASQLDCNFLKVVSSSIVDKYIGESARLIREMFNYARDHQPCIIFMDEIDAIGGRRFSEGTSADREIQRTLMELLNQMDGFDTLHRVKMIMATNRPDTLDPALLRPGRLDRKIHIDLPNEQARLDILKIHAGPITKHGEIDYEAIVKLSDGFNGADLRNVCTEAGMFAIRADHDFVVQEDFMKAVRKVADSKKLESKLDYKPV
UniProt Q7Z7A4: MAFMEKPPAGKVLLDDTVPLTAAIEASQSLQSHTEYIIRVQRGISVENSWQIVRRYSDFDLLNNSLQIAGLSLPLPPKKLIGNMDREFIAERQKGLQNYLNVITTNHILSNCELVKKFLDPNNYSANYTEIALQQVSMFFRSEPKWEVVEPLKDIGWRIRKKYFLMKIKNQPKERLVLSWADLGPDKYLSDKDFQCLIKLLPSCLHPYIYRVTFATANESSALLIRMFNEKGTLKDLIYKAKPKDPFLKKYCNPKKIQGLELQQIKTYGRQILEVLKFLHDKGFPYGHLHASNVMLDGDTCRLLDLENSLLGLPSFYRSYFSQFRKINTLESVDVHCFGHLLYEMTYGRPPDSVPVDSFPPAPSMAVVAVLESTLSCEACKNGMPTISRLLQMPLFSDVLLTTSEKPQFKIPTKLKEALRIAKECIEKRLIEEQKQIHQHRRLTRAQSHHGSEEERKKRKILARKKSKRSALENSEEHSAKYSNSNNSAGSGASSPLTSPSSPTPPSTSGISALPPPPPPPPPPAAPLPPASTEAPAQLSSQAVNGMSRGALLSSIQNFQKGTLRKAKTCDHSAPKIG
UniProt P17980, whole entry, looked up: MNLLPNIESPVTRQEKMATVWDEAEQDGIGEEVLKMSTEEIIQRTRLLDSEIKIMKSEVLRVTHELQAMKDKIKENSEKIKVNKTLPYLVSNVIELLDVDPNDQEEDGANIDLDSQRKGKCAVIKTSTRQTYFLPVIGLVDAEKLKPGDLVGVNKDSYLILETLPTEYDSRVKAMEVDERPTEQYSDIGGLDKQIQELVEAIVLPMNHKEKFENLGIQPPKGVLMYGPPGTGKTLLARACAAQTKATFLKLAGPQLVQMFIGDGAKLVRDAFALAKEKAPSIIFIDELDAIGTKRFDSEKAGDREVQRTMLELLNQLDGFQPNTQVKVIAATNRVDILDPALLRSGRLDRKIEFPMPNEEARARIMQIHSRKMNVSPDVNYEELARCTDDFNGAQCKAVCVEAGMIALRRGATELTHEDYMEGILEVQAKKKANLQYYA
UniProt O00232: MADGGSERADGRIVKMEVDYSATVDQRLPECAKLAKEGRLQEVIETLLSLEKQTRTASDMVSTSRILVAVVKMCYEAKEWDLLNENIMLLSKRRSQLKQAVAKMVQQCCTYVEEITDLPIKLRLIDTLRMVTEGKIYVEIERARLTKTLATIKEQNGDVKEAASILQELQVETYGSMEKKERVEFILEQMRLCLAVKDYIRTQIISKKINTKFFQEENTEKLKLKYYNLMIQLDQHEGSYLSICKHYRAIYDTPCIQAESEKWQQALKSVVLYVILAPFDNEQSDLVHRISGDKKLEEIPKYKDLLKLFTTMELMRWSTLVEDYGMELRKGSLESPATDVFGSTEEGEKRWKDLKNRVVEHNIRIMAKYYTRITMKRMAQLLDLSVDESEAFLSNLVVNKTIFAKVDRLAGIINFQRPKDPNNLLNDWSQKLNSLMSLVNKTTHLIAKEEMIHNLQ
UniProt P43686, whole entry, looked up: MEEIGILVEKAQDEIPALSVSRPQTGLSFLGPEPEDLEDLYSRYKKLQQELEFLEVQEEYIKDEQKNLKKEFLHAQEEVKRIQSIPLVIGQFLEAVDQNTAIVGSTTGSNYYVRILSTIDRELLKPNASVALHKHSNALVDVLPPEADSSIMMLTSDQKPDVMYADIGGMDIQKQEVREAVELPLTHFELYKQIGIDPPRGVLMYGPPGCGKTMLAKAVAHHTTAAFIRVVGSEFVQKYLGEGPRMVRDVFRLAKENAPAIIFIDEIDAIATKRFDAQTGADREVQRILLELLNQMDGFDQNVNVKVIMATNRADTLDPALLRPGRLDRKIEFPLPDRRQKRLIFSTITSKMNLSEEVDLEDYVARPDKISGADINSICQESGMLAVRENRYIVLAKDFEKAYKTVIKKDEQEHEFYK
UniProt Q00577: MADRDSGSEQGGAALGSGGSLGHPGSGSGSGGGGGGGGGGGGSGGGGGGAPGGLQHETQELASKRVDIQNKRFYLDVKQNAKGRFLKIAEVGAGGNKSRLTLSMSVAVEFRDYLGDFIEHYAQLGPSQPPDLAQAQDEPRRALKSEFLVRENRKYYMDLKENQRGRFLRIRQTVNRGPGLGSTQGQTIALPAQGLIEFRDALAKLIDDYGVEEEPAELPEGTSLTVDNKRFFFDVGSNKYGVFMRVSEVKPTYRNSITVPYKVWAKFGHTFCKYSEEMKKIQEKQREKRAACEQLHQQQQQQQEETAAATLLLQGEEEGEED
UniProt P60900, whole entry, looked up: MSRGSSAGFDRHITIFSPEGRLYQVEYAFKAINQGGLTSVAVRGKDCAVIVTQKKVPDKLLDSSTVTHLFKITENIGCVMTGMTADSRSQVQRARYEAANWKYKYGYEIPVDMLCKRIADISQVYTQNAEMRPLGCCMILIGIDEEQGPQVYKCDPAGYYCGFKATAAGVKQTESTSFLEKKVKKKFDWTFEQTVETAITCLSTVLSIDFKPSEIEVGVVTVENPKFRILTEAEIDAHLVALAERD
UniProt Q2TAL8: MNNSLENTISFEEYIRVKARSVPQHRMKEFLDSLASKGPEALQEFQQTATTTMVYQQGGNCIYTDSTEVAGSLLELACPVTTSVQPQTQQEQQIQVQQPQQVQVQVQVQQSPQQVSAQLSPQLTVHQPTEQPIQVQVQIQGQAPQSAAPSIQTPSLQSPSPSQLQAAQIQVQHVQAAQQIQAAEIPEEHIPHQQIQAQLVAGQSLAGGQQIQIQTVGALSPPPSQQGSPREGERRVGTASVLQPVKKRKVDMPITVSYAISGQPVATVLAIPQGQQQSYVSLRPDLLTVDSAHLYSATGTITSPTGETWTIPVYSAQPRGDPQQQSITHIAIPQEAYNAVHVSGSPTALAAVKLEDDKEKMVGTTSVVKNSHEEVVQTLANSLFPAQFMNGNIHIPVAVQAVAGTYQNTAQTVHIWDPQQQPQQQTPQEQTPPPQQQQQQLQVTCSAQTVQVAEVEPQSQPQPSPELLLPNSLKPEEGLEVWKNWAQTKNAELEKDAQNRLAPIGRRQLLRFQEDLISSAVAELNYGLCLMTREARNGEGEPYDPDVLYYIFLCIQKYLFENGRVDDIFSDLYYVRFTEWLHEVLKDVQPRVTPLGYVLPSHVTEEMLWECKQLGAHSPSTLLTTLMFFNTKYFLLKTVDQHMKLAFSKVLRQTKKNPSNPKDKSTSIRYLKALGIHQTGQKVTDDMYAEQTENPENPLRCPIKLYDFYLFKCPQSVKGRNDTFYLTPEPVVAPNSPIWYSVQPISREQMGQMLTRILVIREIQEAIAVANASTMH
UniProt P62191: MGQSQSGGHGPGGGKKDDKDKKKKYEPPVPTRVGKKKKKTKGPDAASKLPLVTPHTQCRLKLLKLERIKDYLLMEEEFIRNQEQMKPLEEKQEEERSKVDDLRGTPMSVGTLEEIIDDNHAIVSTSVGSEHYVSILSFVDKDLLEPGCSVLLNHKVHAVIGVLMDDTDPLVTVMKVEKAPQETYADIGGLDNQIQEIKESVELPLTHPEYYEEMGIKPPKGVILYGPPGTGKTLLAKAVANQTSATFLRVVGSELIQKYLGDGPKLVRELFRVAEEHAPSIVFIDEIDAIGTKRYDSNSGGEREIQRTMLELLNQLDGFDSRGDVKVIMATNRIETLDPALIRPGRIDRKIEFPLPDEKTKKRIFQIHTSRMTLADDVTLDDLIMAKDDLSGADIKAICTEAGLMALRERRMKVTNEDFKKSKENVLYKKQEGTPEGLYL
UniProt O00391: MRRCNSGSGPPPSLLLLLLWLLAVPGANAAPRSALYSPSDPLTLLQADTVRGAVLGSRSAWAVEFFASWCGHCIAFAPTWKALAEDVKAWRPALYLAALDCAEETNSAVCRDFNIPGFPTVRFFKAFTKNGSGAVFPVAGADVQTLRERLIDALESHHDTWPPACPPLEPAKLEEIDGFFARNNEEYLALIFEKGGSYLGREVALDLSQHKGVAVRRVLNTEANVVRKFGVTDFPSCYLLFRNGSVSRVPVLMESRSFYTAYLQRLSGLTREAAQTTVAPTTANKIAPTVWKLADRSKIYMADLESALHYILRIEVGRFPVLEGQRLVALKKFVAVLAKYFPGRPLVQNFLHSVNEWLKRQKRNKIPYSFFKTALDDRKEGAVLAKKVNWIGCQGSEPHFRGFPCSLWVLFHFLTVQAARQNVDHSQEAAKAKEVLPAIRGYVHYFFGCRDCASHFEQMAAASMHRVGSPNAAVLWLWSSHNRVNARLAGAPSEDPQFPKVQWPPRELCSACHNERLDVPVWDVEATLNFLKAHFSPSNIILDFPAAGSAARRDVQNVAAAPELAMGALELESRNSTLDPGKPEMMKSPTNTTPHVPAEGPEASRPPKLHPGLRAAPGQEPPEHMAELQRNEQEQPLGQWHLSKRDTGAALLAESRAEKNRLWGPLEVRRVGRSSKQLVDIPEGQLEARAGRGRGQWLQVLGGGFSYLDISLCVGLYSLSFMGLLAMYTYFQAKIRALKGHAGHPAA
UniProt Q8N8N7: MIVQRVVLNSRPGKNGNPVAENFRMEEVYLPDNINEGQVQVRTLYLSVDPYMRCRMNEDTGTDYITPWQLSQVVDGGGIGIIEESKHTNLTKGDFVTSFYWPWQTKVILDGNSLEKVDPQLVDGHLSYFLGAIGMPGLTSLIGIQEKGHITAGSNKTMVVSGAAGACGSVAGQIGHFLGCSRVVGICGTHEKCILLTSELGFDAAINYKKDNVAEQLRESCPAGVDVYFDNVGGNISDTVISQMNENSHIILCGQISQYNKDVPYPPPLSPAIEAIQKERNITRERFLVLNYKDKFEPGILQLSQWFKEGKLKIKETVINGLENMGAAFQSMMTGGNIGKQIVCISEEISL
UniProt Q9Y606: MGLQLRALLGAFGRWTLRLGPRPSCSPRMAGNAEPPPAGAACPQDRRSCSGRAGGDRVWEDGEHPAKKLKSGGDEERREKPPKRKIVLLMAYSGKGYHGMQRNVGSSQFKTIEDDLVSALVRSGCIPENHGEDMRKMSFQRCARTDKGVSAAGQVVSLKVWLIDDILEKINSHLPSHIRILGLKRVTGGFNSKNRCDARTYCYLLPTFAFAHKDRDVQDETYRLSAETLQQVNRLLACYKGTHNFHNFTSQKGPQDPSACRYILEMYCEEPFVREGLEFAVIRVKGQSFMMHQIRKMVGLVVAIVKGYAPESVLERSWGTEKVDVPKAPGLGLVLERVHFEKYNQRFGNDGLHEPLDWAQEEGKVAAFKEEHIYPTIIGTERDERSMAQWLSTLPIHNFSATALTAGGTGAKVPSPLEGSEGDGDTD
UniProt Q9Y3E5: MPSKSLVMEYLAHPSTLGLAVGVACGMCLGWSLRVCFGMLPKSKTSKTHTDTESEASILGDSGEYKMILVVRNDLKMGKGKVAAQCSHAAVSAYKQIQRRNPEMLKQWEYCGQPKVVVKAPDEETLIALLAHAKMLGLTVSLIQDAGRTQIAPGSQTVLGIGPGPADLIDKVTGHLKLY
UniProt O75832: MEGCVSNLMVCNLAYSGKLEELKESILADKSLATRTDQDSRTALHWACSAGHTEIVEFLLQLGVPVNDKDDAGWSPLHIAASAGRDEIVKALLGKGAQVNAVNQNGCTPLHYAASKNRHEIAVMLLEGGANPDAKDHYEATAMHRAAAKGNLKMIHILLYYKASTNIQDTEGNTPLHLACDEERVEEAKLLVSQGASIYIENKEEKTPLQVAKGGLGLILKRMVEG

What was measured:
Test in all cases: log2 fold change, soluble protein after heating vs DMSO (PISA); higher = thermal stabilisation; K562 cells, 10 uM, 30 min; active = over 0.2 and 3.5 SD of the protein, either way, in both replicates (recomputed)
erlotinib = compound: C#Cc1cccc(Nc2ncnc3cc(OCCOC)c(OCCOC)cc23)c1 [erlotinib]
Procedure, shortened: (§1)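 Values are thermal stability changes relative to control samples and are taken from duplicates. They are stated as log2 fold changes. Before quantification by TMTpro 16plex LC-MS/MS with equalised channel sums, K562 cells at 2×10^6 cells/mL were treated with 10 μM compound for 30 min, heated in aliquots for 3 min across 48°C-58°C, pooled, extracted in PBS with 0.5% NP-40 at 4°C, and centrifuged at 21,000xg for 90 min to give the soluble supernatant.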

[1] = compound: C/C(=N\NC(=O)C1=CC(=CC=C1)S(=O)(=O)N2CCOCC2)/C3=C(C=CC(=C3)Cl)O
Procedure, shortened: as §1

[2] = compound: C1=CC(=C(C=C1Cl)C2=NC3=NC=CN=C3C(=N2)NC4=CC=NC=C4)F
Procedure, shortened: as §1

[3] = compound: C1=CC(=CC=C1C2=NC3=C(N2)C=C(C=C3)C(=O)N)OC4=CC=C(C=C4)Cl
Procedure, shortened: as §1

[4] = compound: C1=CC2=C(C=CC(=C2)/C=C\3/C(=O)NC(=NCC4=CC=CS4)S3)N=C1
Procedure, shortened: as §1

[5] = compound: C1=CC2=NC=CN=C2C=C1/C=C/3\C(=O)NC(=O)S3
Procedure, shortened: as §1

[6] = compound: C1=CC=C(C=C1)C2=NC(=C(N2)C3=CC=NC=C3)C4=CC(=C(C=C4)Cl)O
Procedure, shortened: as §1

[7] = compound: C1=CC=C2C(=C1)C3=NNC4=CC=CC(=C43)C2=O
Procedure, shortened: as §1

[8] = compound: C1CCN(C1)C(=O)NC2=CC=CC(=C2)NC3=NC=C(C(=N3)NCCC4=CN=CN4)Br
Procedure, shortened: as §1

[9] = compound: C1CN(CCC1(CC2=CC=C(C=C2)Cl)N)C3=NC=NC4=C3C=CN4
Procedure, shortened: as §1

IRAK-1-4 Inhibitor I = compound: C1COCCN1CCN2C3=CC=CC=C3N=C2NC(=O)C4=CC(=CC=C4)[N+](=O)[O-] [IRAK-1-4 Inhibitor I]
Procedure, shortened: as §1

ibrutinib = compound: C=CC(=O)N1CCC[C@@H](n2nc(-c3ccc(Oc4ccccc4)cc3)c3c(N)ncnc32)C1 [ibrutinib]
Procedure, shortened: as §1

[10] = compound: CC(=O)c1cnc2ccc(-c3cc(Cl)c(O)c(Cl)c3)nc2c1N[C@H]1CC[C@H](CN(C)C)CC1
Procedure, shortened: as §1

ralimetinib = compound: CC(C)(C)Cn1c(N)nc2ccc(-c3[nH]c(C(C)(C)C)nc3-c3ccc(F)cc3)nc21 [ralimetinib]
Procedure, shortened: as §1

[11] = compound: CC(C)(O)CC(=O)NCCn1ccc2ncnc(Nc3ccc(Oc4cccc(C(F)(F)F)c4)c(Cl)c3)c21
Procedure, shortened: as §1

[12] = compound: CC(C)C1=C2N=C(C=C(N2N=C1)NCC3=CC=CC=C3)NCCCCCCN
Procedure, shortened: as §1

[13] = compound: CC(C)C[C@@H](C=O)NC(=O)[C@H](CC(C)C)NC(=O)[C@H](CC(C)C)NC(=O)OCc1ccccc1
Procedure, shortened: as §1

pinometostat = compound: CC(C)N(C[C@H]1O[C@@H](n2cnc3c(N)ncnc32)[C@H](O)[C@@H]1O)[C@H]1C[C@@H](CCc2nc3cc(C(C)(C)C)ccc3[nH]2)C1 [pinometostat]
Procedure, shortened: as §1

[14] = compound: CC1=C(C(CC(=O)N1)C2=CC=C(C=C2)C(F)(F)F)C(=O)NC3=C(C=C4C(=C3)C=NN4)F
Procedure, shortened: as §1

[15] = compound: CC1=C(C2=C(C=C1)C(=O)C3=CC=CC=C3N2CCCN)C
Procedure, shortened: as §1

Target	log2 fold change (erlotinib)	log2 fold change [1]	log2 fold change [2]	log2 fold change [3]	log2 fold change [4]	log2 fold change [5]	log2 fold change [6]	log2 fold change [7]	log2 fold change [8]	log2 fold change [9]	log2 fold change (IRAK-1-4 Inhibitor I)	log2 fold change (ibrutinib)	log2 fold change [10]	log2 fold change (ralimetinib)	log2 fold change [11]	log2 fold change [12]	log2 fold change [13]	log2 fold change (pinometostat)	log2 fold change [14]	log2 fold change [15]
PSIP1 (UniProt O75475)	inactive: -0.041	inactive: -0.126	inactive: -0.202	inactive: 0.045	inactive: -0.052	inactive: 0.008	inactive: -0.047	inactive: -0.001	inactive: 0.023	inactive: -0.023	inactive: -0.092	inactive: 0.049	inactive: 0.003	inactive: 0.055	inactive: 0.054	inactive: 0.015	inactive: 0.136	inactive: 0.154	inactive: 0.047	inactive: 0.127
PSMC6 (UniProt P62333)	inactive: -0.06	inactive: -0.074	inactive: -0.006	inactive: 0.011	inactive: -0.031	inactive: -0.037	inactive: 0.015	inactive: 0.014	inactive: 0.034	inactive: -0.008	inactive: -0.026	inactive: 0	inactive: 0.044	inactive: 0.019	inactive: 0.093	inactive: 0.077	inactive: -0.206	inactive: 0.01	–	inactive: -0.01
PXK (UniProt Q7Z7A4)	inactive: 0.062	inactive: 0.019	inactive: -0.006	inactive: 0.022	inactive: 0.074	inactive: 0.018	active: 0.251	inactive: 0.019	inactive: 0.014	inactive: 0.004	inactive: 0.032	inactive: 0.042	inactive: -0.012	inactive: 0.1	inactive: -0.023	inactive: -0.201	inactive: 0.037	inactive: 0.012	–	inactive: 0.057
PSMC3 (UniProt P17980)	inactive: -0.039	inactive: -0.107	inactive: -0.037	inactive: 0.008	inactive: -0.059	inactive: -0.025	inactive: -0.002	inactive: -0.001	inactive: 0.026	inactive: -0.004	inactive: -0.041	inactive: -0.021	inactive: 0.023	inactive: 0.016	inactive: 0.007	inactive: 0.048	inactive: -0.213	inactive: 0.025	–	inactive: 0.023
PUF60 (UniProt Q9UHX1)	inactive: -0.011	inactive: 0.172	inactive: -0.005	inactive: 0.014	inactive: -0.071	inactive: -0.026	inactive: 0.013	inactive: 0.02	inactive: -0.072	inactive: -0.141	inactive: -0.11	inactive: -0.018	active: -0.352	inactive: 0.049	inactive: -0.016	active: -0.235	inactive: -0.003	inactive: -0.016	–	inactive: 0.016
PSMD12 (UniProt O00232)	inactive: -0.064	inactive: 0	inactive: -0.017	inactive: -0.003	inactive: -0.023	inactive: -0.016	inactive: 0.009	inactive: 0.066	inactive: -0.042	inactive: -0.049	inactive: -0.055	inactive: -0.022	inactive: 0.03	inactive: 0.004	inactive: -0.01	inactive: 0	active: -0.251	inactive: 0.03	–	inactive: 0.015
PSMC4 (UniProt P43686)	inactive: -0.05	inactive: -0.092	inactive: -0.052	inactive: -0.004	inactive: -0.023	inactive: -0.032	inactive: -0.011	inactive: 0.006	inactive: 0.04	inactive: -0.041	inactive: -0.056	inactive: -0.012	inactive: 0.022	inactive: 0.014	inactive: 0.029	inactive: 0.034	active: -0.249	inactive: 0.025	–	inactive: 0.016
PURA (UniProt Q00577)	inactive: -0.244	inactive: -0.208	inactive: -0.319	inactive: 0.101	inactive: -0.156	inactive: 0.013	inactive: -0.137	inactive: -0.051	inactive: 0.179	inactive: -0.102	inactive: -0.151	inactive: 0.096	inactive: 0.169	inactive: 0.064	inactive: 0.276	inactive: 0.129	inactive: 0.079	inactive: 0.087	–	active: -0.792
PSMA6 (UniProt P60900)	inactive: -0.091	inactive: -0.025	inactive: 0.01	inactive: 0.007	inactive: -0.004	inactive: -0.008	inactive: 0.037	inactive: -0.028	inactive: 0.028	inactive: 0.024	inactive: 0.003	inactive: 0.012	inactive: 0.079	inactive: -0.002	inactive: 0.029	inactive: 0.071	inactive: -0.134	inactive: -0.013	inactive: 0.053	inactive: -0.015
QRICH1 (UniProt Q2TAL8)	inactive: 0.066	inactive: 0.361	inactive: -0.023	inactive: 0	inactive: 0.282	inactive: 0.059	inactive: -0.053	inactive: -0.007	inactive: 0.014	inactive: -0.076	inactive: -0.108	inactive: -0.024	inactive: 0.048	inactive: 0.055	inactive: -0.237	inactive: -0.321	inactive: 0.08	inactive: 0.026	–	inactive: -0.08
PSMC1 (UniProt P62191)	inactive: -0.093	inactive: -0.063	inactive: -0.034	inactive: 0.037	inactive: -0.027	inactive: -0.028	inactive: -0.017	inactive: 0.029	inactive: 0.012	inactive: -0.004	inactive: -0.053	inactive: -0.024	inactive: 0.056	inactive: 0.018	inactive: 0.002	inactive: 0.04	active: -0.212	inactive: 0.032	–	inactive: -0.007
QSOX1 (UniProt O00391)	inactive: -0.036	inactive: -0.063	inactive: -0.039	inactive: 0.047	inactive: 0.071	inactive: -0.005	inactive: -0.014	inactive: -0.142	inactive: -0.019	inactive: -0.072	inactive: 0.034	inactive: -0.071	inactive: -0.105	inactive: -0.037	inactive: 0.163	inactive: 0.036	inactive: 0.034	inactive: -0.105	inactive: 0.018	inactive: -0.011
PTGR2 (UniProt Q8N8N7)	inactive: -0.015	inactive: -0.027	inactive: 0.016	inactive: -0.023	inactive: 0.365	inactive: -0.01	inactive: 0.062	inactive: 0.056	inactive: -0.023	inactive: 0.131	inactive: 0	inactive: 0.321	inactive: -0.328	inactive: -0.016	inactive: -0.042	inactive: 0.121	inactive: 0.001	inactive: 0.074	–	inactive: 0.011
PUS1 (UniProt Q9Y606)	inactive: 0.017	inactive: 0.222	inactive: -0.055	inactive: 0.034	inactive: -0.141	inactive: -0.165	inactive: -0.067	inactive: -0.132	inactive: 0.028	inactive: -0.08	inactive: -0.034	inactive: 0.108	inactive: 0.025	inactive: 0.021	inactive: 0	inactive: -0.236	inactive: 0.094	inactive: 0.129	–	inactive: -0.1
PTRH2 (UniProt Q9Y3E5)	inactive: 0.015	inactive: 0.048	inactive: 0.125	inactive: -0.002	inactive: 0.049	inactive: -0.004	inactive: 0.169	inactive: -0.022	inactive: -0.038	inactive: 0.007	inactive: 0.059	inactive: 0.031	inactive: 0.075	inactive: 0.085	inactive: -0.065	inactive: 0.062	inactive: -0.081	inactive: -0.033	–	inactive: 0.017
PSMD10 (UniProt O75832)	inactive: 0.033	inactive: 0.091	inactive: 0.094	inactive: -0.088	inactive: 0.059	inactive: 0.014	inactive: 0.023	inactive: 0.023	inactive: -0.014	inactive: -0.018	inactive: -0.007	inactive: -0.02	inactive: 0.002	inactive: 0.005	inactive: -0.065	inactive: 0	inactive: 0.012	inactive: -0.059	inactive: -0.034	inactive: 0.047

Random excerpt: 2 entries already listed.
Target	log2 fold change (erlotinib)	log2 fold change [1]	log2 fold change [2]	log2 fold change [3]	log2 fold change [4]	log2 fold change [5]	log2 fold change [6]	log2 fold change [7]	log2 fold change [8]	log2 fold change [9]	log2 fold change (IRAK-1-4 Inhibitor I)	log2 fold change (ibrutinib)	log2 fold change [10]	log2 fold change (ralimetinib)	log2 fold change [11]	log2 fold change [12]	log2 fold change [13]	log2 fold change (pinometostat)	log2 fold change [14]	log2 fold change [15]
PUF60 (UniProt Q9UHX1)	inactive: -0.011	inactive: 0.172	inactive: -0.005	inactive: 0.014	inactive: -0.071	inactive: -0.026	inactive: 0.013	inactive: 0.02	inactive: -0.072	inactive: -0.141	inactive: -0.11	inactive: -0.018	active: -0.352	inactive: 0.049	inactive: -0.016	active: -0.235	inactive: -0.003	inactive: -0.016	–	inactive: 0.016
PXK (UniProt Q7Z7A4)	inactive: 0.062	inactive: 0.019	inactive: -0.006	inactive: 0.022	inactive: 0.074	inactive: 0.018	active: 0.251	inactive: 0.019	inactive: 0.014	inactive: 0.004	inactive: 0.032	inactive: 0.042	inactive: -0.012	inactive: 0.1	inactive: -0.023	inactive: -0.201	inactive: 0.037	inactive: 0.012	–	inactive: 0.057
